Results: paper PMC12501026
These are yes or no findings as the source states them, for the method shown. Binding seen in cells or lysates may run through a third protein. Some results given as binding are weak or reduced against the parent protein; the word gives no strength.

Protein sequences, listed by entry. Tags and fused reporters are not part of them. Lines headed by an entry give the natural chain unless they say otherwise; changes in a name come on top.
UniProt P16401: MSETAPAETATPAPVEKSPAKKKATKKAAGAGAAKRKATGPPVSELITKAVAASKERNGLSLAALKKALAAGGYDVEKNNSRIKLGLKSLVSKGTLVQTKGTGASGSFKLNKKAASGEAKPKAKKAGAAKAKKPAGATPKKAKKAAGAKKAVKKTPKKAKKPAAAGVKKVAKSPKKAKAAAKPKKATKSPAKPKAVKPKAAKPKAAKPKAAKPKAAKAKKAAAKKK
UniProt P25963: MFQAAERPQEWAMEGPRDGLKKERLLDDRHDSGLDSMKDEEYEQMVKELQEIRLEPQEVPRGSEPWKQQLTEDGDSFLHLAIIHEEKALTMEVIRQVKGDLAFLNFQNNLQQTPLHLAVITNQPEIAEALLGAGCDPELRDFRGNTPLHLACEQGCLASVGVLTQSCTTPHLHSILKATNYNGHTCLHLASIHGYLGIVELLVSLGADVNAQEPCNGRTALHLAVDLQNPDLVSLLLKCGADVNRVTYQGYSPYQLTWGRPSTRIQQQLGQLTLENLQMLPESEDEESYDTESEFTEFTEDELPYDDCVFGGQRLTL

Legend:
[1] = molecular target: Flag-Histone H1.5 K93R (human) (UniProt P16401); test: co-IP; DB cells transfected with Flag-histone H1.5 or its K-to-R mutants, with chidamide; histone H1.5 enriched from RIPA lysate, western blot for IκBα
[2] = molecular target: Flag-Histone H1.5 K67R (human) (UniProt P16401); test: as above
[3] = molecular target: Flag-Histone H1.5 (human) (UniProt P16401); test: as above
[4] = molecular target: Histone H1.5 (human (endogenous in DB)) (UniProt P16401); test: co-IP; immunoprecipitation of endogenous histone H1.5 from RIPA lysate (antibody and magnetic beads overnight at 4 °C, five washes), western blot for IκBα; cells with or without chidamide, or with siRNA against HDAC1, HDAC2, HDAC3 or HDAC10

Measured: binding

IκBα (from UniProt P25963 1-317)
binds: all assays above
